The list shows a part of the results.
Assays:
Experiment in all cases: log2 fold change, soluble protein after heating vs DMSO (PISA); higher = thermal stabilisation; K562 cells, 10 uM, 30 min; active = over 0.2 and 3.5 SD of the protein, either way, in both replicates (recomputed)
[1] = compound: C#Cc1cccc(Nc2ncnc3cc(OCCOC)c(OCCOC)cc23)c1 [erlotinib]
Method in brief: (§1)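 K562 cells at 2×10^6 cells/mL were treated for 30 min with 10 μM compound, and aliquots were heated for 3 min over 48°C-58°C before pooling. Extraction used PBS with 0.5% NP-40 at 4°C, and soluble protein was the supernatant after 21,000xg for 90 min, measured by TMTpro 16plex LC-MS/MS with channel sums equalised. Thermal stability values, relative to control samples and from duplicates, are log2 fold changes.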

The chains behind the UniProt entries cited, without tags or fusion partners. Where a name states a change or a piece, a line headed by the entry shows the natural chain unless it says otherwise.
UniProt P16152: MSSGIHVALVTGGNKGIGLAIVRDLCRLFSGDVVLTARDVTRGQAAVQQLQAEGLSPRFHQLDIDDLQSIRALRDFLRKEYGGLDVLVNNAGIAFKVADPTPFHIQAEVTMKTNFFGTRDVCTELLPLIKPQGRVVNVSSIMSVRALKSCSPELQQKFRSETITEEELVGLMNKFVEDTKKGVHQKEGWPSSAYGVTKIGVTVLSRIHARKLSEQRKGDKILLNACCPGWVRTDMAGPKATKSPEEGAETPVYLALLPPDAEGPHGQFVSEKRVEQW
UniProt O95273: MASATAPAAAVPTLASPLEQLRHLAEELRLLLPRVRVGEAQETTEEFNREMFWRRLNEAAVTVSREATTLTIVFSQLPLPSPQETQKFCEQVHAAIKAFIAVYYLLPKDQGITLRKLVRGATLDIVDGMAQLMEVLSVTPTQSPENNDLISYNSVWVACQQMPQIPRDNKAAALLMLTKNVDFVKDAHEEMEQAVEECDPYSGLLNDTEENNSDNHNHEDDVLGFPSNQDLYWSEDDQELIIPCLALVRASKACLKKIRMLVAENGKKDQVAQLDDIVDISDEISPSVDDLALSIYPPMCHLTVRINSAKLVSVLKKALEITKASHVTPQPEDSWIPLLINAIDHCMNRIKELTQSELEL
UniProt Q8IX12: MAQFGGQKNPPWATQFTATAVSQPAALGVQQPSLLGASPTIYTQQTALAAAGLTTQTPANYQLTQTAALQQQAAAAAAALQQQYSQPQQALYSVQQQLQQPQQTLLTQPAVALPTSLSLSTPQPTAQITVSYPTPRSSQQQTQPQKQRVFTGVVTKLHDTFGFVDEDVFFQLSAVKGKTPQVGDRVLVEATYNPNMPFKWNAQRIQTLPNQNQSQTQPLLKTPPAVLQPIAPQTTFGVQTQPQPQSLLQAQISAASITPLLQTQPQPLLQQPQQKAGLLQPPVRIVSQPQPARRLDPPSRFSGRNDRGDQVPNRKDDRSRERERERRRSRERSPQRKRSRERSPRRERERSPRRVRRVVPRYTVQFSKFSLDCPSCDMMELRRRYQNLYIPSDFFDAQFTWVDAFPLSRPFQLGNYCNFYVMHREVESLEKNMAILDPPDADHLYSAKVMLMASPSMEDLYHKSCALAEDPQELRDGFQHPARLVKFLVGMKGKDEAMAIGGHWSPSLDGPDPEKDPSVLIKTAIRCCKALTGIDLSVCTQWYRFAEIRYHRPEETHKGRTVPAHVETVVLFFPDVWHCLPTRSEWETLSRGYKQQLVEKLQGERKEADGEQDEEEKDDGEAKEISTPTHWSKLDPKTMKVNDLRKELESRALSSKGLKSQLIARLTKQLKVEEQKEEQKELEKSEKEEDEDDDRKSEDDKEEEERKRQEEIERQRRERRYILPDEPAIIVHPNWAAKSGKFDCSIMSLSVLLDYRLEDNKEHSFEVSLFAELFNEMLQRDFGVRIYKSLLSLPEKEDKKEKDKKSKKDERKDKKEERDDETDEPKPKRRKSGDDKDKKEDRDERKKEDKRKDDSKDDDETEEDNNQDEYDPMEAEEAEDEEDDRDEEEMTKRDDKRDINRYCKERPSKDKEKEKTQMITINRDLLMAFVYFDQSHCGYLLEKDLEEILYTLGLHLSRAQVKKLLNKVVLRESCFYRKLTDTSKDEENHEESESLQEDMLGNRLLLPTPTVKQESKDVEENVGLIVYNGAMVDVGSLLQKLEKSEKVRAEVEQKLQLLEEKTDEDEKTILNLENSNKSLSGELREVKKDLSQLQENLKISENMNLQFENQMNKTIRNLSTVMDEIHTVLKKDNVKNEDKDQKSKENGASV
UniProt O15234, whole entry, looked up: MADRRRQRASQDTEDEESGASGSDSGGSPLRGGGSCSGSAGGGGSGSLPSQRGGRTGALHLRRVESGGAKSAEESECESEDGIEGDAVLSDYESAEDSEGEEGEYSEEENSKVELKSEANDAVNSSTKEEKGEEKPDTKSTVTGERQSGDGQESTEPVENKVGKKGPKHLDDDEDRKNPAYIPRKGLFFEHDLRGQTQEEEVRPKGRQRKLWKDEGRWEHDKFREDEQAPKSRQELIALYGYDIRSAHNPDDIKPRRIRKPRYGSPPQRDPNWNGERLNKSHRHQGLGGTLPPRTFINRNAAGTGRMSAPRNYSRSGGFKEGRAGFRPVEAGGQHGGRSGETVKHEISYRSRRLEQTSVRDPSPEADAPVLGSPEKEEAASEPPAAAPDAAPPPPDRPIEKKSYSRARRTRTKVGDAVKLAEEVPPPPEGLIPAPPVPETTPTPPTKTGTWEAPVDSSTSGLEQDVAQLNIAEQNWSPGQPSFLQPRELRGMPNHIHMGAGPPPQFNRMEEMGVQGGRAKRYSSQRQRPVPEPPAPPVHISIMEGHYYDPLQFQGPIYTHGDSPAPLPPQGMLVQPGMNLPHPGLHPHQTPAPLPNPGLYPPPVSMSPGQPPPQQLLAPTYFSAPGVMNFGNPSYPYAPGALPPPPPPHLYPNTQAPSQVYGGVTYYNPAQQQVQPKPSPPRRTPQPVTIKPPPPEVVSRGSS
UniProt P42575: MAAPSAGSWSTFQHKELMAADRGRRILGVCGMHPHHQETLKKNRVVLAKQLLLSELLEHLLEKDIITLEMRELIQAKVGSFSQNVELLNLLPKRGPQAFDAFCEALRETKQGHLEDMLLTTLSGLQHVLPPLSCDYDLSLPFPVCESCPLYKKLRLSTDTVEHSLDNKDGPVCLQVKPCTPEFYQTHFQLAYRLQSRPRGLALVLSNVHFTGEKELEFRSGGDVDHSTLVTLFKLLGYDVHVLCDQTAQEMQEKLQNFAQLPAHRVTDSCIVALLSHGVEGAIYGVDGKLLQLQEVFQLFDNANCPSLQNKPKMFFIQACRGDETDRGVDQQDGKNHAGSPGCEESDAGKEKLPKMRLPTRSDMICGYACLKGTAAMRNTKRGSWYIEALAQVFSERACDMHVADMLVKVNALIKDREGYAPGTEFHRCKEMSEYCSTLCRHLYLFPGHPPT
UniProt Q9Y5K6, whole entry, looked up: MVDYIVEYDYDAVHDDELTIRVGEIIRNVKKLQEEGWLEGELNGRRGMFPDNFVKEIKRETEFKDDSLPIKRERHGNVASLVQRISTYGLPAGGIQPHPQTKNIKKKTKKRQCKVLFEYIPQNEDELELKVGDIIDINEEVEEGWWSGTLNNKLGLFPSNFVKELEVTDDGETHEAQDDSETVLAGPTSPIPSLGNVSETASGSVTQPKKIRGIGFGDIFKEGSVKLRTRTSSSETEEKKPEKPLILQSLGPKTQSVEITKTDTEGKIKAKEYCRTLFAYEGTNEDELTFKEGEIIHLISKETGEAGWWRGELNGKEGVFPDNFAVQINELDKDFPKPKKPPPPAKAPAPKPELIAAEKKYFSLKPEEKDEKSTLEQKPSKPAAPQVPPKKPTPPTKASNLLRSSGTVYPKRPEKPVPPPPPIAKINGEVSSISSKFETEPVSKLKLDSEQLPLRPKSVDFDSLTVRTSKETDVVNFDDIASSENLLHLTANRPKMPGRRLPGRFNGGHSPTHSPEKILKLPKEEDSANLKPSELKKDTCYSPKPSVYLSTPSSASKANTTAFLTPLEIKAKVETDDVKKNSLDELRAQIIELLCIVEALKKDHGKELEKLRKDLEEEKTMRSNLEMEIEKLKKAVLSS
UniProt Q96NT0: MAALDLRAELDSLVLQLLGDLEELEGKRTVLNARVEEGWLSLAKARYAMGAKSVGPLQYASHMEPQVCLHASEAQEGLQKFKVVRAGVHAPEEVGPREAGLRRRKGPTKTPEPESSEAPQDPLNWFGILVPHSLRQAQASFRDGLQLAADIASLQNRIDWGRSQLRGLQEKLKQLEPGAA
UniProt Q8N163, whole entry, looked up: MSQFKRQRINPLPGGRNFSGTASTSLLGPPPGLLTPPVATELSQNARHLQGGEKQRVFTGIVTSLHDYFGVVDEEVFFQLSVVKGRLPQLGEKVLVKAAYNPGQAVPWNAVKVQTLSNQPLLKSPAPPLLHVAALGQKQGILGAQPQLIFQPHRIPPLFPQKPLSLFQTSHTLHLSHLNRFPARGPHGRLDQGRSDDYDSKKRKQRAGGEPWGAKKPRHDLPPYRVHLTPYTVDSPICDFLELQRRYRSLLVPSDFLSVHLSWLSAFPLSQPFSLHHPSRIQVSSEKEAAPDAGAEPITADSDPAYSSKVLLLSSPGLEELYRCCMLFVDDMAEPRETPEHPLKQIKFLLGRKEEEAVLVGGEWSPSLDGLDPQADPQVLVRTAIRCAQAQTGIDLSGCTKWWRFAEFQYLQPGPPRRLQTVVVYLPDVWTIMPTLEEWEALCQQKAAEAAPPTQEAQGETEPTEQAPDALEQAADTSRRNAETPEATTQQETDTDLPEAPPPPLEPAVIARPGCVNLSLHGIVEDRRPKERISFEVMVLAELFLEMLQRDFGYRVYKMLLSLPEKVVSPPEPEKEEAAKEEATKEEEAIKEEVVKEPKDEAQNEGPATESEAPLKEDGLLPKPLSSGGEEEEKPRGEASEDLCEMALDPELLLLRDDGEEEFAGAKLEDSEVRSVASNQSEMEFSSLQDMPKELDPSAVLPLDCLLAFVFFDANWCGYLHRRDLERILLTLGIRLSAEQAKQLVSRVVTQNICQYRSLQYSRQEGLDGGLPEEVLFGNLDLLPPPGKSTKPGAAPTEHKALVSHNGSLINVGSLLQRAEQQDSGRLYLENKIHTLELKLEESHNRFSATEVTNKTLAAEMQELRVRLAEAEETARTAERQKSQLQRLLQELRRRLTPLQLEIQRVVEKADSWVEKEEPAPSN
UniProt A6NHX0: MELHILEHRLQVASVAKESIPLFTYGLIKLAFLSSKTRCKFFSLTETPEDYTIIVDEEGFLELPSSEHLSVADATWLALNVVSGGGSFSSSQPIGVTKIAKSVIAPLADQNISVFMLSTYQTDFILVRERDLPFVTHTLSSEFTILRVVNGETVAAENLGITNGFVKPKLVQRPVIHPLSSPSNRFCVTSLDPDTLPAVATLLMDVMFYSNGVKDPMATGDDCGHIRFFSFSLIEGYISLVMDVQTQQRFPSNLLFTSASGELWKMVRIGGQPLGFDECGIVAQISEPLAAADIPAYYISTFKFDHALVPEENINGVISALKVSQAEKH
UniProt Q14790: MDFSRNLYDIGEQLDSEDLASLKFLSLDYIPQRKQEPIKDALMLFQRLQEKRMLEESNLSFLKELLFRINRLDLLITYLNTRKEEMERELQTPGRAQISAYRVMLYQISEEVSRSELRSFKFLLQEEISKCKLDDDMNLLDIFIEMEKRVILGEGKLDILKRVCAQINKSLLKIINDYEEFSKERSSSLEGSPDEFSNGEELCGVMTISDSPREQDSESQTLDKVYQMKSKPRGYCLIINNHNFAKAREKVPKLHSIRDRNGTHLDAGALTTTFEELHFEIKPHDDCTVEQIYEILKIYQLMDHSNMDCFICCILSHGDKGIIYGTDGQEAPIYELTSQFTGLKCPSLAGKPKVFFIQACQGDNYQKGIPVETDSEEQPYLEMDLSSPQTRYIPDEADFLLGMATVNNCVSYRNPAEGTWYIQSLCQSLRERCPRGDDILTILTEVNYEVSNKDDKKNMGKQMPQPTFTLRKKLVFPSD
UniProt P14209: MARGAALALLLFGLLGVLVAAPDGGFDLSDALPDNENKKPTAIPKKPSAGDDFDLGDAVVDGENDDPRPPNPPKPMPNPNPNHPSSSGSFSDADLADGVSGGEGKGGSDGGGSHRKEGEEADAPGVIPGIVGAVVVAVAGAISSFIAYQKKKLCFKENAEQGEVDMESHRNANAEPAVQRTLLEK
UniProt P0C221: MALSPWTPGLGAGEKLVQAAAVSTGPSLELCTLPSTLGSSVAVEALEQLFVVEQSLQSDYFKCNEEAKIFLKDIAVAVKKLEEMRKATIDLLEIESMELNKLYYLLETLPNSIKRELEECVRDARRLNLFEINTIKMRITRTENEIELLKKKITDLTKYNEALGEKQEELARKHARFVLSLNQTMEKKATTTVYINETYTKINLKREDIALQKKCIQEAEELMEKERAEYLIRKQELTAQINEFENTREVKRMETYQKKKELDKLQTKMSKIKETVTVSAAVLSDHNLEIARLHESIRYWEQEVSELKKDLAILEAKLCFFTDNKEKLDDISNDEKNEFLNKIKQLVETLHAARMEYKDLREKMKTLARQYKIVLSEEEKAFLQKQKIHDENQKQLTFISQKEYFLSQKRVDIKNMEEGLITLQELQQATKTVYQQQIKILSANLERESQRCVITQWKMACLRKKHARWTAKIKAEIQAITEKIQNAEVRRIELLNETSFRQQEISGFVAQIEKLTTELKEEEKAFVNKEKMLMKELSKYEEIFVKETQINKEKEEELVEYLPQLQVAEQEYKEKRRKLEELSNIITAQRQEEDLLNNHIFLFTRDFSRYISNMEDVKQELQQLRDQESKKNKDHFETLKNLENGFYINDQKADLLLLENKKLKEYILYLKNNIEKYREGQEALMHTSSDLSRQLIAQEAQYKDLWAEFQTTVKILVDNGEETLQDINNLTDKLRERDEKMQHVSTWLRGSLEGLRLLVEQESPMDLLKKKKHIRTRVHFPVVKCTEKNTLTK

[2] = compound: C/C(=N\NC(=O)C1=CC(=CC=C1)S(=O)(=O)N2CCOCC2)/C3=C(C=CC(=C3)Cl)O
Method in brief: as §1

[3] = compound: C1=CC(=C(C=C1Cl)C2=NC3=NC=CN=C3C(=N2)NC4=CC=NC=C4)F
Method in brief: as §1

[4] = compound: C1=CC(=CC=C1C2=NC3=C(N2)C=C(C=C3)C(=O)N)OC4=CC=C(C=C4)Cl
Method in brief: as §1

[5] = compound: C1=CC2=C(C=CC(=C2)/C=C\3/C(=O)NC(=NCC4=CC=CS4)S3)N=C1
Method in brief: as §1

[6] = compound: C1=CC=C2C(=C1)C3=NNC4=CC=CC(=C43)C2=O
Method in brief: as §1

[7] = compound: C1=CC2=NC=CN=C2C=C1/C=C/3\C(=O)NC(=O)S3
Method in brief: as §1

[8] = compound: C1=CC=C(C=C1)C2=NC(=C(N2)C3=CC=NC=C3)C4=CC(=C(C=C4)Cl)O
Method in brief: as §1

[9] = compound: C1CCN(C1)C(=O)NC2=CC=CC(=C2)NC3=NC=C(C(=N3)NCCC4=CN=CN4)Br
Method in brief: as §1

[10] = compound: C1CN(CCC1(CC2=CC=C(C=C2)Cl)N)C3=NC=NC4=C3C=CN4
Method in brief: as §1

Measured: log2 fold change

CCDC102A (UniProt Q96A19)
inactive: [1] -0.38 | [2] -0.131 | [3] 0.052 | [4] 0.112 | [5] -0.055 | [6] 0.032

CAVIN2 (UniProt O95810)
inactive: [1] -0.093 | [2] -0.041 | [3] -0.126 | [4] 0.07 | [5] -0.085 | [7] -0.042 | [8] -0.006 | [6] 0.043 | [9] 0.01 | [10] -0.1

CBL (UniProt P22681)
inactive: [1] 0.013 | [2] 0.036 | [3] 0.01 | [4] 0 | [5] -0.024 | [7] -0.004 | [8] 0.023 | [6] -0.01 | [9] -0.081 | [10] -0.013

CBR1 (UniProt P16152)
inactive: [1] 0.011 | [2] 0.066 | [3] 0.115 | [4] 0.008 | [5] -0.009 | [7] 0.028 | [8] 0.186 | [6] -0.038 | [9] -0.027 | [10] 0.057

CCNDBP1 (UniProt O95273)
inactive: [1] 0.009 | [2] 0.191 | [4] 0.105 | [5] -0.011 | [7] 0.034 | [8] 0.076 | [6] -0.122 | [9] -0.086 | [10] -0.068

CCT3 (UniProt P49368)
inactive: [1] 0.012 | [2] -0.008 | [3] -0.126 | [4] 0.01 | [5] -0.002 | [7] -0.03 | [8] 0.039 | [6] 0.006 | [9] 0.016 | [10] -0.002

CCAR1 (UniProt Q8IX12)
inactive: [1] 0.052 | [2] 0.057 | [3] -0.002 | [4] 0.014 | [5] 0.071 | [7] 0.039 | [8] -0.021 | [6] 0.024 | [9] 0.027 | [10] -0.085

CCDC93 (UniProt Q567U6)
inactive: [1] 0.01 | [2] 0.066 | [3] -0.072 | [4] 0.026 | [5] 0.021 | [7] 0.033 | [8] 0.021 | [6] 0.005 | [9] -0.002 | [10] 0.028

CASC3 (UniProt O15234)
inactive: [1] -0.084 | [2] -0.166 | [3] -0.066 | [4] 0.068 | [5] 0 | [7] -0.047 | [8] 0.023 | [6] -0.29 | [9] 0.089 | [10] 0.022

CCDC127 (UniProt Q96BQ5)
inactive: [1] -0.017 | [2] 0.012 | [3] 0.053 | [4] -0.043 | [5] 0.018 | [7] 0.027 | [8] -0.073 | [6] -0.02 | [9] -0.047 | [10] -0.004

CASP2 (UniProt P42575)
inactive: [1] 0.069 | [2] -0.007 | [3] 0.056 | [4] -0.011 | [5] 0.054 | [7] -0.025 | [8] -0.011 | [6] 0.028 | [9] 0.004 | [10] -0.053

CD84 (UniProt Q9UIB8)
inactive: [1] 0.131 | [2] 0.052 | [3] -0.027 | [4] 0.099 | [5] 0.01 | [6] 0.033 | [9] -0.032 | [10] 0.111

CBFA2T3 (UniProt O75081)
inactive: [1] 0.073 | [2] 0.066 | [3] 0.097 | [4] 0.184 | [5] -0.131 | [7] 0.029 | [8] -0.21 | [6] 0.022 | [9] -0.055 | [10] -0.048

CCDC97 (UniProt Q96F63)
inactive: [1] -0.014 | [2] -0.003 | [3] -0.049 | [4] 0.043 | [5] -0.028 | [7] 0.111 | [8] -0.03 | [6] 0.003 | [9] -0.015 | [10] -0.063

CD2AP (UniProt Q9Y5K6)
inactive: [1] -0.03 | [2] 0.001 | [3] 0.061 | [4] 0.003 | [5] -0.005 | [7] 0.003 | [8] 0 | [6] -0.002 | [9] 0.004 | [10] -0.001

CAV2 (UniProt P51636)
inactive: [1] -0.01 | [2] -0.066 | [4] 0.076 | [5] -0.018 | [7] -0.559 | [6] 0.057 | [9] 0.025 | [10] -0.021

CCDC115 (UniProt Q96NT0)
inactive: [1] 0.019 | [2] 0.003 | [3] 0.109 | [4] -0.004 | [5] -0.027 | [7] 0.037 | [8] 0.018 | [6] 0.014 | [9] -0.056 | [10] 0.029

CCAR2 isoform 2 (UniProt Q8N163)
inactive: [1] 0.027 | [2] 0.063 | [3] 0.033 | [4] -0.014 | [5] 0.071 | [7] 0 | [8] 0.014 | [6] -0.039 | [9] 0.001 | [10] 0.007

CCT8 (UniProt P50990)
inactive: [1] -0.025 | [2] -0.005 | [3] 0.047 | [4] -0.016 | [5] 0.006 | [7] 0.002 | [8] 0.027 | [6] 0.013 | [9] 0 | [10] 0.005

Reprinted from the listing (2 entries):
CD2AP (UniProt Q9Y5K6)
inactive: [1] -0.03 | [2] 0.001 | [3] 0.061 | [4] 0.003 | [5] -0.005 | [7] 0.003 | [8] 0 | [6] -0.002 | [9] 0.004 | [10] -0.001

CAV2 (UniProt P51636)
inactive: [1] -0.01 | [2] -0.066 | [4] 0.076 | [5] -0.018 | [7] -0.559 | [6] 0.057 | [9] 0.025 | [10] -0.021

(cont.)

CASTOR2 (UniProt A6NHX0)
inactive: [1] -0.026 | [2] 0.117 | [3] 0.013 | [4] 0.018 | [5] -0.031 | [7] 0.017 | [8] 0.029 | [6] -0.017 | [9] -0.065 | [10] -0.002

CD58 (UniProt P19256)
inactive: [1] 0.01 | [2] 0.066 | [3] 0.017 | [4] 0.053 | [5] 0.006 | [7] -0.013 | [8] 0.018 | [6] -0.06 | [9] -0.082 | [10] 0.046

CCDC134 (UniProt Q9H6E4)
inactive: [1] -0.001 | [2] -0.035 | [3] -0.068 | [4] 0 | [5] -0.063 | [7] 0.025 | [8] 0.015 | [6] -0.029 | [9] 0.028 | [10] 0.001

CCT5 (UniProt P48643)
inactive: [1] -0.036 | [2] 0.007 | [3] 0.045 | [4] -0.005 | [5] -0.05 | [7] 0.025 | [8] 0.024 | [6] 0.016 | [9] -0.009 | [10] 0.015

CASP8 isoform 9 (UniProt Q14790)
inactive: [1] -0.008 | [2] 0.056 | [3] -0.055 | [4] -0.023 | [5] 0.021 | [7] 0.052 | [8] -0.078 | [6] 0.104 | [9] -0.051 | [10] -0.014

CD99 (UniProt P14209)
inactive: [1] -0.012 | [2] 0.009 | [3] 0.014 | [4] 0.103 | [5] 0.077 | [7] 0.082 | [6] -0.165 | [9] 0.019 | [10] -0.037

CCDC175 (UniProt P0C221)
inactive: [1] 0.077 | [2] -0.049 | [4] -0.025 | [5] 0.022 | [7] -0.013 | [8] -0.01 | [6] 0.004

CDC27 isoform 2 (UniProt P30260)
inactive: [1] -0.022 | [2] 0.022 | [3] -0.028 | [4] 0.015 | [5] 0.014 | [7] 0.021 | [8] 0.02 | [6] -0.01 | [9] -0.016 | [10] -0.048

CCDC28B (UniProt Q9BUN5)
inactive: [1] -0.133 | [2] -0.039 | [4] 0.047 | [5] 0.079 | [7] 0.141 | [6] -0.046 | [9] 0.101 | [10] -0.097

CD2BP2 (UniProt O95400)
inactive: [1] 0.105 | [3] -0.044 | [4] -0.048 | [7] 0.124 | [9] -0.002 | [10] -0.05

CBLL1 (UniProt Q75N03)
inactive: [1] 0.058 | [2] -0.007 | [4] -0.01 | [5] -0.111 | [8] 0.095 | [6] 0.036 | [9] -0.077 | [10] 0.113

CDC25A (UniProt P30304)
inactive: [1] 0.061 | [3] -0.01 | [4] -0.111 | [7] -0.04

From the supplement of paper PMC10849652
